Assay results: PubChem BioAssay AID220 (DTP/NCI, 2004)
The list is a part of this screen's results and no random one: it gathers tests that were run many times, whatever their T/C, doses with no T/C, and many T/C values between a quarter and a half above the control. Further doses and runs are listed elsewhere. T/C: endpoint of the treated group in % of that of the vehicle group. Schedules are NCI's codes, taken here to give the interval after Q, in days (D) or hours (H), and the number of doses after X. Some T/C values carry the count of animals alive at the toxicity check (mostly the fifth day); without a count, all were alive then. Some doses have a count of surviving animals in place of a T/C: the source holds a T/C of zero for them, seemingly a mark for toxic or unscored doses. Survivors were counted at the toxicity check, usually on the fifth day, unless a day is given; later deaths do not show. Some doses were run more than once; the values are given in rising order. Starred links: 1 amine or outer side, 2 acyl side, 3 side chain; linkers in the order of their positions; H or OH if unused. Positions of bridges follow the written chain, without caps; N, C: chain ends. Non-standard residues stand in square brackets, D forms with d. Residues, ends and D or L forms follow the SMILES beside them. Chains are numbered I, II in the order given. *: point of attachment. Actinocin(9to1) = Cc1c2oc3c(C)ccc(C(=O)[*:1])c3nc-2c(C(=O)[*:2])c(N)c1=O; X2 = CCC(=O)CC1CC(C)CC(C(=O)[*:2])N1[*:1]; aThr = C[C@H](O)[C@H](N)C(=O)O; NMeV = CN[C@H](C(=O)O)C(C)C; X1 = CCCCCCCCC(C)C(=O)*; Aib = CC(C)(N)C(=O)O; X3 = CC(CN(C)CCO)N*; Sar = CNCC(=O)O

Test system: CD8F1 mice, subcutaneous mammary adenocarcinoma, T/C%
Assay: NCI In Vivo Anticancer Drug Screen. Data for tumor model Mammary Adenocarcinoma CD8F1 (subcutaneous) in CD8F1
Conditions: higher T/C = larger tumour
How it was run: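 Antitumor activity is assessed in transplantable-tumor mice by comparing the treated group with a vehicle-treated control group. Survival or tumor size serves as the measure, reported as T divided by C.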

[1] = T/C endpoint: median tumor weight change, dose: 25.0 mg/kg/injection, schedule: Q01DX001 (ip), vehicle: other
[2] = T/C endpoint: median tumor weight change, dose: 50.0 mg/kg/injection, schedule: Q01DX001 (ip), vehicle: other
[3] = T/C endpoint: median tumor weight change, dose: 2000.0 mg/kg/injection, schedule: Q01DX001 (ip), vehicle: saline with Tween-80
[4] = T/C endpoint: median tumor weight (est.), dose: 25.0 mg/kg/injection, schedule: Q07DX005 (ip), vehicle: saline with Tween-80, evaluated on day 30

Cc1cc(NCCN(C(C)C)C(C)C)nc(/N=C(\N)Nc2ccc(Cl)c(C(F)(F)F)c2)n1
survivor count (T/C endpoint: median tumor weight change, dose: 200.0 mg/kg/injection, schedule: Q01DX001 (ip), vehicle: Klucel (hydroxypropylcellulose) (HPC)): 1 of 10 on day 27 and 4 of 10 on day 32

CCCCCCCCC(C)C(=O)N1CCCC1C(=O)N1C(CC(=O)CC)CC(C)CC1C(=O)NC(C)C(=O)NC(C)(C)C(=O)NC(C)(C)C(=O)NC(C(=O)NC(C)C(=O)NC(C)(C)C(=O)NC(C)(C)C(=O)NC(C)CN(C)CCO)C(C)CC (stereo not given) (X1-P[X2]A[Aib][Aib]IA[Aib][Aib]-X3; configuration not given here)
survivor count (T/C endpoint: median tumor weight change, dose: 6.25 mg/kg/injection, schedule: Q01DX001 (ip), vehicle: other): 2 of 10 on day 38
survivor count (T/C endpoint: median tumor weight change, dose: 6.25 mg/kg/injection, schedule: Q01DX001 (ip), vehicle: saline with Tween-80): 0 of 10 on day 28
survivor count (T/C endpoint: median tumor weight change, dose: 12.5 mg/kg/injection, schedule: Q01DX001 (ip), vehicle: other): 0 of 10 on day 38
survivor count (T/C endpoint: median tumor weight change, dose: 12.5 mg/kg/injection, schedule: Q01DX001 (ip), vehicle: saline with Tween-80): 0 of 10 on day 28
survivor count [1]: 0 of 10 on day 38
survivor count (T/C endpoint: median tumor weight change, dose: 25.0 mg/kg/injection, schedule: Q01DX001 (ip), vehicle: saline with Tween-80): 0 of 10 on day 28
survivor count [2]: 0 of 10 on day 38
survivor count (T/C endpoint: median tumor weight change, dose: 50.0 mg/kg/injection, schedule: Q01DX001 (ip), vehicle: saline with Tween-80): 0 of 10 on day 28

COc1cccc2c1C(=O)c1c(O)c3c(c(O)c1C2=O)C[C@@](O)(/C(C)=N/NC(=O)c1ccccc1)C[C@@H]3OC1CC(N)C(O)C(C)O1 (stereo not given in full)
survivor count (T/C endpoint: median tumor weight (est.), dose: 12.5 mg/kg/injection, schedule: Q07DX005 (ip), vehicle: water): 6 of 10

CCc1ccccc1N1CCN(C(=O)c2cc(OC)c(OC)c(OC)c2)CC1
T/C (T/C endpoint: median tumor weight (est.), dose: 12.5 mg/kg/injection, schedule: Q07DX004 (ip), vehicle: Klucel (hydroxypropylcellulose) (HPC), evaluated on day 30): 143 % of control
T/C (T/C endpoint: median tumor weight (est.), dose: 25.0 mg/kg/injection, schedule: Q07DX003 (ip), vehicle: Klucel (hydroxypropylcellulose) (HPC), evaluated on day 21): 138 % of control [9 of 10 alive]
T/C (T/C endpoint: median tumor weight (est.), dose: 100.0 mg/kg/injection, schedule: Q07DX004 (ip), vehicle: Klucel (hydroxypropylcellulose) (HPC), evaluated on day 30): 143 % of control

Cc1c2oc3c(C)ccc(C(=O)N[C@@H]4C(=O)N[C@H](C(C)C)C(=O)N5CCC[C@H]5C(=O)N(C)CC(=O)N(C)[C@@H](C(C)C)C(=O)O[C@H]4C)c3nc-2c(C(=O)N[C@@H]2C(=O)N[C@H](C(C)C)C(=O)N3CCC[C@H]3C(=O)N(C)CC(=O)N(C)[C@@H](C(C)C)C(=O)O[C@H]2C)c(N)c1=O (I: [aThr][dV]P[Sar][NMeV] / II: [aThr][dV]P[Sar][NMeV]; ester I:1-I:C, II:1-II:C; linker I:N-II:N via Actinocin(9to1))
T/C (T/C endpoint: mean tumor weight, dose: 0.02 mg/kg/injection, schedule: Q01DX009 (ip), vehicle: saline + alcohol, evaluated on day 31): 125 % of control
T/C (T/C endpoint: mean tumor weight, dose: 0.05 mg/kg/injection, schedule: Q07DX007 (ip), vehicle: saline, evaluated on day 50): 134 % of control
T/C (T/C endpoint: median tumor weight (est.), dose: 0.03 mg/kg/injection, schedule: Q07DX005 (ip), vehicle: saline, evaluated on day 30): 146 % of control
survivor count (T/C endpoint: median tumor weight (est.), dose: 400.0 micrograms/kg/injection, schedule: Q07DX005 (ip), vehicle: saline): 6 of 10 on day 30
survivor count (T/C endpoint: median tumor weight change, dose: 2.0 mg/kg/injection, schedule: Q01DX001 (ip), vehicle: saline): 0 of 10 on day 26 and 4 of 10 on day 28

COc1ccc2ccccc2c1C1NC(=O)c2ccccc2N1 (stereo not given)
survivor count (T/C endpoint: median tumor weight change, dose: 2000.0 mg/kg/injection, schedule: Q01DX001 (ip), vehicle: Klucel (hydroxypropylcellulose) (HPC)): 4 of 10 on day 29

CCN(CC)CCCNc1nccc2c(C)c3[nH]c4ccncc4c3cc12
survivor count [1]: 5 of 10 on day 32
survivor count [2]: 0 of 10 on day 27, 0 of 10 on day 29, 0 of 10 on day 32
survivor count (T/C endpoint: median tumor weight change, dose: 100.0 mg/kg/injection, schedule: Q01DX001 (ip), vehicle: other): 0 of 10 on day 27, 0 of 10 on day 29, 0 of 10 on day 32
survivor count (T/C endpoint: median tumor weight change, dose: 200.0 mg/kg/injection, schedule: Q01DX001 (ip), vehicle: other): 0 of 10 on day 29 and 0 of 10 on day 32
survivor count (T/C endpoint: median tumor weight change, dose: 400.0 mg/kg/injection, schedule: Q01DX001 (ip), vehicle: other): 0 of 10 on day 29 and 0 of 10 on day 32

O=c1[nH]cnc2[nH]ncc12
survivor count (T/C endpoint: median tumor weight change, dose: 500.0 mg/kg/injection, schedule: Q01DX001 (ip), vehicle: suspension in saline): 1 of 10 on day 33
survivor count (T/C endpoint: median tumor weight change, dose: 1000.0 mg/kg/injection, schedule: Q01DX001 (ip), vehicle: suspension in saline): 0 of 10 on day 33
survivor count (T/C endpoint: median tumor weight change, dose: 2000.0 mg/kg/injection, schedule: Q01DX001 (ip), vehicle: suspension in saline): 0 of 10 on day 33

Cc1ccc(N)c(N)c1
survivor count (T/C endpoint: median tumor weight change, dose: 1000.0 mg/kg/injection, schedule: Q01DX001 (ip), vehicle: saline with Tween-80): 4 of 10 on day 39
survivor count [3]: 0 of 10 on day 39

C=C1C(=O)OCC1C(=O)O (stereo not given)
T/C (T/C endpoint: median tumor weight change, dose: 31.25 mg/kg/injection, schedule: Q01DX001 (ip), vehicle: suspension in saline, evaluated on day 49): 130 % of control
survivor count (T/C endpoint: median tumor weight change, dose: 250.0 mg/kg/injection, schedule: Q01DX001 (ip), vehicle: suspension in saline): 0 of 10 on day 49

O=C(Oc1ccccc1)c1cc(O)c(O)c(O)c1
T/C (T/C endpoint: median tumor weight change, dose: 75.0 mg/kg/injection, schedule: Q01DX001 (ip), vehicle: suspension in saline, evaluated on day 32): 134 % of control
survivor count (T/C endpoint: median tumor weight change, dose: 600.0 mg/kg/injection, schedule: Q01DX001 (ip), vehicle: suspension in saline): 1 of 10 on day 32
survivor count (T/C endpoint: median tumor weight change, dose: 1200.0 mg/kg/injection, schedule: Q01DX001 (ip), vehicle: suspension in saline): 1 of 10 on day 32

O=C1c2cccc3cc([N+](=O)[O-])cc(c23)C(=O)N1CCN1CCCC1
survivor count (T/C endpoint: median tumor weight change, dose: 125.0 mg/kg/injection, schedule: Q01DX001 (ip), vehicle: saline with Tween-80): 2 of 10 on day 32
survivor count (T/C endpoint: median tumor weight change, dose: 225.0 mg/kg/injection, schedule: Q01DX001 (ip), vehicle: saline with Tween-80): 1 of 10 on day 26
survivor count (T/C endpoint: median tumor weight change, dose: 250.0 mg/kg/injection, schedule: Q01DX001 (ip), vehicle: saline with Tween-80): 0 of 10 on day 32
survivor count (T/C endpoint: median tumor weight change, dose: 500.0 mg/kg/injection, schedule: Q01DX001 (ip), vehicle: saline with Tween-80): 0 of 10 on day 32

C=C/C(C)=C/[C@H](C)C(=O)C[C@H](O)CC1CC(=O)NC(=O)C1
T/C [4]: 125 % of control
T/C (T/C endpoint: median tumor weight (est.), dose: 50.0 mg/kg/injection, schedule: Q07DX005 (ip), vehicle: saline with Tween-80, evaluated on day 30): 139 % of control

N=C(N)Sc1ccccn1
T/C (T/C endpoint: median tumor weight (est.), dose: 100.0 mg/kg/injection, schedule: Q07DX005 (ip), vehicle: suspension in saline, evaluated on day 30): 136 % of control

C=CCNc1nc2c(s1)CCc1cc(OC)c(OC)cc1-2
survivor count (T/C endpoint: median tumor weight (est.), dose: 400.0 mg/kg/injection, schedule: Q07DX005 (ip), vehicle: saline with Tween-80): 5 of 10 on day 30

O=c1cc(-c2ccccc2)[nH]c2c1CCCC2
T/C (T/C endpoint: median tumor weight change, dose: 250.0 mg/kg/injection, schedule: Q01DX001 (ip), vehicle: saline with Tween-80, evaluated on day 37): 134 % of control
T/C (T/C endpoint: median tumor weight change, dose: 500.0 mg/kg/injection, schedule: Q01DX001 (ip), vehicle: saline with Tween-80, evaluated on day 37): 141 % of control
survivor count [3]: 5 of 10 on day 37

C/C=C/c1cc2n(c1)C(=O)c1cc(OC3OC(C)C(NC)C(C)(O)C3O)c(C)c(O)c1NC2O (stereo not given)
T/C (T/C endpoint: median tumor weight (est.), dose: 2.0 micrograms/kg/injection, schedule: Q07DX005 (ip), vehicle: saline, evaluated on day 30): 135 % of control [9 of 10 alive on day 30]
survivor count (T/C endpoint: median tumor weight (est.), dose: 4.0 micrograms/kg/injection, schedule: Q07DX005 (ip), vehicle: saline): 5 of 10 on day 30
survivor count (T/C endpoint: median tumor weight (est.), dose: 8.0 micrograms/kg/injection, schedule: Q07DX005 (ip), vehicle: saline): 0 of 10 on day 30
survivor count (T/C endpoint: median tumor weight (est.), dose: 16.0 micrograms/kg/injection, schedule: Q07DX005 (ip), vehicle: saline): 0 of 10 on day 30
survivor count (T/C endpoint: median tumor weight (est.), dose: 32.0 micrograms/kg/injection, schedule: Q07DX005 (ip), vehicle: saline): 0 of 10 on day 30

COC(=O)C(Cl)(Cl)N=Nc1c(Cl)cc(Cl)c(C)c1Cl
T/C [4]: 131 % of control
T/C (T/C endpoint: median tumor weight (est.), dose: 100.0 mg/kg/injection, schedule: Q07DX005 (ip), vehicle: saline with Tween-80, evaluated on day 30): 136 % of control
survivor count (T/C endpoint: median tumor weight change, dose: 800.0 mg/kg/injection, schedule: Q01DX001 (ip), vehicle: saline with Tween-80): 5 of 10 on day 28
survivor count (T/C endpoint: median tumor weight change, dose: 1600.0 mg/kg/injection, schedule: Q01DX001 (ip), vehicle: saline with Tween-80): 2 of 10 on day 28
survivor count (T/C endpoint: median tumor weight change, dose: 3200.0 mg/kg/injection, schedule: Q01DX001 (ip), vehicle: saline with Tween-80): 0 of 10 on day 28
